Results taken from publication PMC11510716.
These are yes or no findings as the source states them, for the method shown. In cells and extracts the contact can be indirect. Some binding calls cover weakened binding; strength is not graded here.

Protein sequences, listed by entry. Tags and fused reporters are not part of them. Residues count along the entry.
UniProt P09758, residues 27-323: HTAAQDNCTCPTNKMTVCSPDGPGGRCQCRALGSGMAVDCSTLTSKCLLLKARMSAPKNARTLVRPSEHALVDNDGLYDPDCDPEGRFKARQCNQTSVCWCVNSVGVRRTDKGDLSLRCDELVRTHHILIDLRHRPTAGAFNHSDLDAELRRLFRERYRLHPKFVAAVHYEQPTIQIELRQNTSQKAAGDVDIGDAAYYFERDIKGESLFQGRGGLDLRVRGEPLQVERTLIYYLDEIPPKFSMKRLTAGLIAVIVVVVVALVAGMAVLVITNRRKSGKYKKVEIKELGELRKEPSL

Molecular target: Trop2 (trophoblast cell-surface antigen 2) (human) (UniProt P09758)
Assay: co-IP; Flag-Trop2 and HA-Trop2 co-expressed in HEK293 cells; lysate precleared, anti-Flag antibody overnight at 4 °C, protein G beads, blot with anti-HA; cells untreated or treated with hRS7, N14 or N152 and lysed four hours later

- binding: binds
Substance: Trop2 (trophoblast cell-surface antigen 2) (from UniProt P09758 27-323)
